Experimental findings from the supplement of paper PMC9588766 are described below.

± gives the standard deviation of the averaged measurements. What follows is the remainder of the data, with few or none of the lowest values.

The test system of this test is PDC-DUC18828. Briefly: cell viability relative to DMSO control (compound alone) (fraction); PDC-DUC18828 is a patient-derived cholangiocarcinoma cell line; higher = less growth inhibition. Particulars: 1 µM; 72 h. As to the method:
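Selleck Bioactive library screen in the patient-derived FGFR2-G3BP2 fusion-positive ICC cell line PDC-DUC18828 (500 cells/well). Each compound was tested at 1 uM alone, in triplicate, for 72 h. Viability was read by CellTiter-Glo and normalised to plate DMSO controls.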
`Cc1nc2c(-c3cnc(N)nc3)nc(N3CCOCC3)nc2n1C(C)C`: the cell viability came out at 0.274 ± 0.0054.
The result for `CN1C2CCC1CC(OC(=O)C(O)c1ccccc1)C2` (centres undefined) [Homatropine Bromide] reads 1.04 ± 0.041; that for `Cc1ccccc1-n1c(Cn2nc(-c3cccc(O)c3)c3c(N)ncnc32)nc2cccc(C)c2c1=O`, 1.02 ± 0.051.
The result for `Cc1ccc(C(=O)NCCCCCC(=O)Nc2ccccc2N)cc1` reads 1.07 ± 0.066.
